The values below come from paper PMC4737164, “DNA recognition for virus assembly through multiple sequence-independent interactions with a helix-turn-helix motif”.

By UniProt entry, the sequences of proteins in these tests, tags left out. Residues count along the entry.
UniProt P68928, 1-68: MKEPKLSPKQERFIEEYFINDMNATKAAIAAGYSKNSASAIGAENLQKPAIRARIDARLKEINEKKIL

The comparison behind a weaker result is the experiment's own reference, which may not be listed here. For at least one entry, the source does not settle the construct or the ends of the probe. At least one verdict was read from the data and is not stated in words by the source.

The series addresses SF6 small terminase (GP1) DBD wild type (Bacillus phage SF6) (UniProt P68928). The series is described as follows: SPR. The following applies: 20 mM HEPES, 150 mM KCl (300 mM in second ReDCaT), pH 7.0, +0.05% Tween 20 for SPR, ReDCaT 20 uM protein, AUC 20 C, recombinant protein, residues 1-68, protein details: C-terminal 3C site-His tag, cleaved, label: 5'-biotin strand 3.
Where [1] appears, read: 300 mM KCl, no increase vs P8, P9.

As for “TTTCTATGGGAGAAGTAAAGGGGAAATGGACGCCCAA / TTGGGCGTCCATTTCCCCTTTACTTCTCCCATAGAAACCTACCCTACGTCCTCCTGC / GCAGGAGGACGTAGGGTAGG [P8_P9]”, the binding result under setting [1] is recorded as “binds more weakly”. In the case of “TTTTATGAAAGAACCTAAACTATCTCCAAA / TTTGGAGATAGTTTAGGTTCTTTCATAAAACCTACCCTACGTCCTCCTGC / GCAGGAGGACGTAGGGTAGG [F5 (S5)]”, the binding result (150 mM KCl) was “binds”. With “TTTTATGAAAGAAGGGGAAATGGACGCCCAAA / TTTGGGCGTCCATTTCCCCTTCTTTCATAAAACCTACCCTACGTCCTCCTGC / GCAGGAGGACGTAGGGTAGG [F5_P9]”, the binding result under setting [1] is reported as “binds more weakly”.
